# In US5610003A, “Two-equivalent magenta photographic couplers with activity-modifying ballasting groups” (Eastman Kodak Company, priority 1995, dated 1997):
# Experiment: Single-layer photographic coating with fast magenta emulsion, conventional color reversal process; density normalized to a 4-equivalent coupler
# Settings: 0.9 mmol/m^2 coupler in N,N-di-n-butyl lauramide (1:0.5), 675 mg Ag/m^2, four minute first developer; normalized to 4-equivalent coupler, half molar quantities
# Experimental: To evaluate the performance of couplers 1 to 17, they were coated in a single layer format with a gel overcoat using a fast magenta emulsion. The test coupler was coated at a level of 0.9 mmol/m^2 in N,N-di-n-butyl lauramide coupler solvent (1:0.5), 675 mg Ag/m^2, 3 g/m^2 gel, 1.75 g tetraazaindene/Ag mole. The coatings were processed through a conventional color reversal process with a four minute first developer step and the densities were recorded.
# Measured densities were normalized relative to 1-(2,4,6-trichlorophenyl)-3-{3-[2-(2,4-di-tert-pentylphenoxy)ethanamido]benzamido}-5-oxo-2-pyrazoline, a 4-equivalent coupler typically used in current reversal film systems. The couplers of examples 1-17 were coated in half molar quantities with respect to this standard.
row,Compound,Normalized Maximum Density
1,CCCCCCC(Oc1ccc(C(C)(C)CC(C)(C)C)cc1C(C)(C)CC(C)(C)C)C(=O)NC1=NN(c2c(Cl)cc(Cl)cc2Cl)C(=O)C1n1cccn1 (centres unmarked) [Example 1],0.60
2,CCCCCCCCC(Oc1ccc(C(C)(C)CC(C)(C)C)cc1C(C)(C)CC(C)(C)C)C(=O)NC1=NN(c2c(Cl)cc(Cl)cc2Cl)C(=O)C1n1cccn1 (centres unmarked) [Example 2],0.54
3,CCCCCCCCCCCCC(Oc1ccc(C(C)(C)CC(C)(C)C)cc1C(C)(C)CC(C)(C)C)C(=O)NC1=NN(c2c(Cl)cc(Cl)cc2Cl)C(=O)C1n1cccn1 (centres unmarked) [Example 3],0.48
4,CCCCC(Oc1ccc(C(C)(C)CC)cc1C(C)(C)CC)C(=O)NC1=NN(c2c(Cl)cc(Cl)cc2Cl)C(=O)C1n1cccn1 (centres unmarked) [Example 4],1.02
5,CCCCCCC(Oc1ccc(C(C)(C)CC)cc1C(C)(C)CC)C(=O)NC1=NN(c2c(Cl)cc(Cl)cc2Cl)C(=O)C1n1cccn1 (centres unmarked) [Example 5],0.78
6,CCCCCCCCC(Oc1ccc(C(C)(C)CC)cc1C(C)(C)CC)C(=O)NC1=NN(c2c(Cl)cc(Cl)cc2Cl)C(=O)C1n1cccn1 (centres unmarked) [Example 6],0.71
7,CCCCCCCCCCCCC(Oc1ccc(C(C)(C)CC)cc1C(C)(C)CC)C(=O)NC1=NN(c2c(Cl)cc(Cl)cc2Cl)C(=O)C1n1cccn1 (centres unmarked) [Example 7],0.70
8,CCCCCCCCCCCCCCCCC(Oc1ccc(C(C)(C)CC)cc1C(C)(C)CC)C(=O)NC1=NN(c2c(Cl)cc(Cl)cc2Cl)C(=O)C1n1cccn1 (centres unmarked) [Example 8],0.70
9,CCCCCCC(Oc1cc2c(cc1C(C)(C)CC(C)(C)C)OC(C)(C)CC2(C)C)C(=O)NC1=NN(c2c(Cl)cc(Cl)cc2Cl)C(=O)C1n1cccn1 (centres unmarked) [Example 9],0.62
10,CCCCCCCCCCCCC(Oc1ccc(CCCCC)cc1CCCCC)C(=O)NC1=NN(c2c(Cl)cc(Cl)cc2Cl)C(=O)C1n1cccn1 (centres unmarked) [Example 10],0.97
11,CCCCCCCCCCCCC(Oc1cc(C(C)(C)C)cc(C(C)(C)C)c1)C(=O)NC1=NN(c2c(Cl)cc(Cl)cc2Cl)C(=O)C1n1cccn1 (centres unmarked) [Example 11],0.90
12,CCC(C)(C)c1ccc(Oc2ccc([N+](=O)[O-])cc2C(=O)NC2=NN(c3c(Cl)cc(Cl)cc3Cl)C(=O)C2n2cccn2)c(C(C)(C)CC)c1 (centres unmarked) [Example 12],0.32
13,CCCCCCCCCCCC(=O)Nc1ccc(Oc2ccc(C(C)(C)CC)cc2C(C)(C)CC)c(C(=O)NC2=NN(c3c(Cl)cc(Cl)cc3Cl)C(=O)C2n2cccn2)c1 (centres unmarked) [Example 13],0.34
14,CCCCCCCCCCC(Oc1ccc(S(=O)(=O)c2ccc(OCc3ccccc3)cc2)cc1)C(=O)Nc1ccc(Oc2ccc(C(C)(C)CC)cc2C(C)(C)CC)c(C(=O)NC2=NN(c3c(Cl)cc(Cl)cc3Cl)C(=O)C2n2cccn2)c1 (centres unmarked) [Example 14],0.20
15,CCC(C)(C)c1ccc(OCC(=O)Nc2ccc(Oc3ccc(C(C)(C)CC)cc3C(C)(C)CC)c(C(=O)NC3=NN(c4c(Cl)cc(Cl)cc4Cl)C(=O)C3n3cccn3)c2)c(C(C)(C)CC)c1 (centres unmarked) [Example 15],0.22
16,CCCCCCCCCCCCC(Oc1ccc(C)cc1C(C)(C)CC(C)(C)C)C(=O)NC1=NN(c2c(Cl)cc(Cl)cc2Cl)C(=O)C1n1cccn1 (centres unmarked) [Example 16],0.82
17,CCCCCCCCCCCCC(Oc1ccc(C(C)(C)CC(C)(C)C)cc1)C(=O)NC1=NN(c2c(Cl)cc(Cl)cc2Cl)C(=O)C1n1cccn1 (centres unmarked) [Example 17],0.88
